Assay results reported in PubChem BioAssay AID493014 (National Center for Advancing Translational Sciences (NCATS), 2011).
About 170 (0.05%) of roughly 340,000 compounds were called active. The shares of active, inactive and inconclusive entries below differ from those in the screen. Calls follow the shape of the dose curve; as a rule, active = well fitted inhibition curve with a large enough effect in the signal ratio, with a control signal flat (not every such curve was filed as active); inconclusive = small, poorly fitted or top-dose-only effect, or effect the other way, or a change in a side signal; inactive = flat fitted curve, though single readings scatter; the % refers to the signal ratio. Where the call is inconclusive, the potency comes from a doubtful curve fit.

Experiment: qHTS Assay to Find Inhibitors of Chronic Active B-Cell Receptor Signaling;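 as to activity change, negative = inhibition: plate controls were basal doxycycline-induced cells for no effect and cells given 10 µM MG132 for full effect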
Conditions: ABC-DLBCL IkBa-CBG/CBR reporter, luminescence ratio (green luciferase fused to IkBa over red control in TMD8 lymphoma cells), 4 h; activity change, negative = inhibition: at 46.1 µM (top of the series) unless noted
How it was run: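 Cell line TMD8 (human ABC DLBCL), stably expressing tet-inducible CBG68-IkBa fusion and CBR; IMDM/0.5% FBS; cpd up to 46 uM; dox induction, 4 h, 37C/5% CO2; dual luminescence; green/red ratio; MG132 control.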
Potency is read from the fitted curve at half-maximal effect.

| SMILES | activity change, negative = inhibition | Potency |
| --- | --- | --- |
| O=C1Nc2ccc(NS(=O)(=O)c3cccs3)c3cccc1c23 | inconclusive: -13.4% |  |
| CC(C)Cc1nnc(NC(=O)CSc2ccccn2)s1 | inconclusive: -0.095% |  |
| CN1C(=O)/C(=C/c2cccc(Cl)c2)Sc2ccc(C(=O)N3CCOCC3)cc21 | inconclusive: 1.43% |  |
| CCSc1nc(=O)n(-c2ccccc2)c(C)c1C(C)=O | inactive: -13% |  |
| CC(=Nc1ccc(Br)cc1)c1sc2ccccc2c1O | inconclusive: 10.3% |  |
| COc1cc(NC(=O)c2csc(-c3ccncc3)n2)cc(C(=O)Nc2cccc(C(F)(F)F)c2)c1 | inactive: 4.27% |  |
| N#C/C(=C\c1c[nH]c2ccccc12)c1nnc2n1CCCCC2 | inactive: -9.81% |  |
| CCN(Cc1nc2ccccc2c(=O)[nH]1)C(=O)c1cccc(S(=O)(=O)N2CCc3ccccc32)c1 | inactive: -5.12% |  |
| C/C(Cc1ccccc1)=N\NC(=O)c1ccccn1 |  | inconclusive: 22.4 µM [falling, single point] |
| COc1ccc(CN(C(=O)CN2C(=O)C(C)Oc3ccccc32)C2CCCC2)c(OC)c1 (configuration not stated) | inconclusive: -11.5% |  |
| Cc1ccc(S(=O)(=O)Nc2ccc(-c3cn4ccc(C)cc4n3)cc2)cc1 | inactive: -7.79% |  |
| O=C(CN1CCOCC1)Nc1nc2cc([N+](=O)[O-])ccc2s1 | inconclusive: -8.38% |  |
| O=C(CN1C(=O)CSC1=O)c1ccccc1 | inconclusive: -3.41% |  |
| CCN1CCN(C(=O)CCCCCn2c(=O)[nH]c3cc(C(=O)OC)ccc3c2=O)CC1 | inconclusive: 12.5% |  |
| CC(NC(=O)COC(=O)C12CC3CC(CC(Br)(C3)C1)C2)c1ccccc1 (configuration not stated) | inconclusive: -3.91% |  |
| O=C(Cc1ccccc1)Nc1ccccc1N1CCOCC1 | inactive: 9.31% |  |
| COc1ccc(CCn2c(N3CCN(Cc4ccccc4)CC3)nc3c2c(=O)[nH]c(=O)n3C)cc1 | inconclusive: -1.62% |  |
| C/C(=N\NC(=O)c1ccn(C)n1)c1cccc(NC(=O)c2ccncc2)c1 |  | inconclusive: 29.1 µM [falling, single point] |
| CSCCC(NC(=O)c1ccco1)C(=O)N(C)CC(=O)Nc1ccccc1Br (configuration not stated) |  | inconclusive: 6.51 µM [falling, partial curve, poor fit] |
| COc1ccc(OC)c(Nc2nc(-c3ccccc3O)nc3ccccc23)c1 | inactive: 3.07% |  |
| Cc1ccc(-c2nc(NC(=O)c3nn(C)cc3[N+](=O)[O-])sc2C)cc1C | inconclusive: -24.6% |  |

| SMILES | activity change, negative = inhibition | Potency |
| --- | --- | --- |
| Cc1ccc(C)c(C(=O)COC(=O)c2cc([N+](=O)[O-])ccc2N2CCOCC2)c1 | inactive: -12.1% |  |
| Cc1ccccc1/C=C1\SC(=S)N(/N=C/c2cc([N+](=O)[O-])ccc2O)C1=O | inconclusive: -19.3% |  |
| Cn1cc([N+](=O)[O-])c(C(=O)N(Cc2ccccc2)Cc2ccccc2)n1 | inconclusive: 0.0585% |  |
| NS(=O)(=O)c1cccc(NC(=O)CCCC2CCCCC2)c1 |  | inconclusive: 12.6 µM [falling, single point] |
| Nc1ccc(-c2cnc(-c3ccc(N)cc3)nc2)cc1 |  | inconclusive: 22.4 µM [falling, single point] |
| CCCCc1nnc(NC(=O)c2ccccc2OCc2c(C)noc2C)s1 |  | inconclusive: 18.4 µM [falling, partial curve] |
| O=C(N/N=C/c1ccncc1)c1ccccc1OCc1ccc(Br)cc1 |  | inconclusive: 4.11 µM [falling, partial curve, poor fit] |
| Cc1cc(Cn2nc(C(=O)NCc3cccc(Br)c3)cc2-c2ccccc2)on1 | inconclusive: 3.68% |  |
| O=c1[nH]c(=S)c2ncn(-c3ccccc3)c2[nH]1 | inconclusive: -19.4% |  |
| CCSc1ncnc2sc3c(c12)CCC3 | inconclusive: 5.92% |  |
| N#Cc1ccsc1NC(=O)CN1CCN(S(=O)(=O)c2ccccc2C(F)(F)F)CC1 | inconclusive: 12.6% |  |
| CCOC(=O)c1nnn(-c2ccc([N+](=O)[O-])cc2[N+](=O)[O-])c1C | inconclusive: -17.4% |  |
| CC1Cc2ccccc2N1c1ncnc2nc[nH]c12 (configuration not stated) | inconclusive: -10.6% |  |
| Cc1ccc(-c2csc(NC(=O)c3ccccc3F)c2C(=O)O)cc1 |  | inconclusive: 31.6 µM [falling, single point] |
| CCCNC(=O)CSc1nnc(C)s1 | inconclusive: 4.1% |  |
| O=C(O)CNS(=O)(=O)Cc1ccccc1 |  | inconclusive: 17.8 µM [falling, single point] |
| CCOC(=O)N1CCN(C(=S)NC(=O)c2c(-c3c(Cl)cccc3Cl)noc2C)CC1 | inactive: 0.377% |  |
| O=C(O)CCN(CCC(=O)O)c1ccccc1 | inconclusive: 5.01% |  |
| Cc1ccc(C2(c3noc(CN4CCC(c5ccncc5)CC4)n3)CCCC2)cc1 | inactive: 1.21% |  |
| CC(C)N1C(=O)/C(=C\c2nc3ccccc3c(=O)[nH]2)c2ccccc21 |  | inconclusive: 25.1 µM [cytotoxic, single point] |
| COc1cn(-c2ccccc2)nc1C(=O)Nc1ccc(C)cc1 | inactive: -14.7% |  |

| SMILES | activity change, negative = inhibition | Potency |
| --- | --- | --- |
| COC(=O)c1sc(NC(=O)c2c(C)noc2C)nc1C |  | inconclusive: 25.1 µM [falling, single point] |
| Cc1ccc(Nc2c(-c3ccc(N4CCOCC4)cc3)nc3ncccn23)cc1 | inconclusive: 3.77% |  |
| CC(=O)Oc1cccc(/C=c2\sc3nc(-c4ccco4)nn3c2=O)c1 | inactive: 14.3% |  |
| O=C(CNc1n[nH]c(=O)[nH]c1=O)N/N=C/C1CC=CCC1 (configuration not stated) | inconclusive: 7.24% |  |
| Cc1ccc2c(CC(=O)NCc3ccc4c(c3)OCO4)coc2c1 |  | inconclusive: 7.31 µM [falling, partial curve, poor fit] |
| O=C(CSc1ccccn1)Nc1ccc(Cl)cn1 | inconclusive: -19.7% |  |
| O=C(OCc1csc(-c2ccccc2)n1)C1=NN(c2ccccc2)C(=O)CC1 | inconclusive: -5.05% |  |
| COc1ccc(-n2nc3ccc(N)cc3n2)cc1Cl | inactive: -0.173% |  |
| CC1(C)CC(n2c(NCCO)nc3c(c2=O)C2(CCCC2)Cc2ccccc2-3)CCO1 (configuration not stated) | inactive: -3.49% |  |
| COc1ccc(/C=C/C(=O)O/N=C(\N)c2ccccc2)cc1OC |  | inconclusive: 20.6 µM [falling, single point] |
| Cc1ccc(NC(=O)CSc2nncn2N)cc1C | inactive: -2.03% |  |
| CCN1C(=O)c2cccc3c(S(=O)(=O)Nc4nc(C)cs4)ccc1c23 | inconclusive: -0.487% |  |
| CCCCNC(=S)NNC(=O)c1ccc(Br)o1 | inconclusive: -12.3% |  |
| Cc1nn(CC(=O)O)c(C)c1Cl | inconclusive: 5.02% |  |
| CCCn1c(=O)c(C(=O)NNC(=O)c2cccc([N+](=O)[O-])c2)c(O)c2ccccc21 | inconclusive: -16.5% |  |
| O=C(C1=C[C@@H](c2coc3ccccc3c2=O)C[C@@H](OCc2ccc(CO)cc2)O1)N1CCN(Cc2ccc3c(c2)OCO3)CC1 | inconclusive: -0.136% |  |
| CCOC(=O)c1cnc(SCC(C)C)nc1N | inactive: 2.28% |  |
| Cc1ccc2nc3n(c(=O)c2c1)-c1ccccc1C(=O)NC3Cc1ccc(O)cc1 (configuration not stated) | inconclusive: -1.49% |  |
| COc1ccc(-c2nn(-c3ccccc3)cc2CO)cc1 |  | inconclusive: 18.4 µM [falling, single point] |
| CC(=O)Nc1ccc(Sc2ncnc3scc(-c4ccccc4)c23)cc1 |  | inconclusive: 29.1 µM [falling, single point] |
| O=C(O)c1cc(-c2c[nH]c3ccccc23)nc2ccc3ccccc3c12 | inconclusive: 7.03% |  |

| SMILES | activity change, negative = inhibition | Potency |
| --- | --- | --- |
| CNC(=S)N/N=C/c1cn(Cc2ccc(C)cc2)c2ccccc12 |  | inconclusive: 13 µM [falling, partial curve, poor fit] |
| COC(c1ccc(Cl)cc1)(c1ccc(Cl)cc1)C(Oc1nc(C)cc(C)n1)C(=O)O (configuration not stated) |  | inconclusive: 35.5 µM [falling, single point] |
| CCCCc1nnc(NC(=O)c2nc3nccc(C)n3n2)s1 | inconclusive: -20.9% |  |
| CC(C)Oc1cccc(C(=O)NC(=S)Nc2ccc3c4c(cccc24)CC3)c1 | inactive: -17.2% |  |
| CCc1cccc(NC(=S)N(CCOC)C2CCN(C(C)=O)CC2)c1 | inconclusive: 5.48% |  |
| C#CCOCCOCCOCCNc1nc(N2CCN(C(=O)CCCCCCCCCCNC(=O)[C@@H](CCSC)n3cc(CCO)nn3)CC2)nc(N2CCN(C(=O)CCCCCCCCCCNC(=O)[C@H]([C@@H](C)CC)n3cc(CCCCCN)nn3)CC2)n1 | inconclusive: 1.1% |  |
| Cc1cc(SCC(=O)N2CCCC2=O)nc2c(C)cccc12 | inconclusive: 1.21% |  |
| O=S(=O)(N1CCOCC1)n1nnc2ccccc21 | inconclusive: 5.29% |  |
| COc1ccc2nc(SCC(=O)Nc3nccs3)[nH]c2c1 | inconclusive: -0.156% |  |
| CC(=O)c1c(C)[nH]c(C(=O)OCC(=O)NCCC(C)C)c1C | inconclusive: -13.1% |  |
| CC1CCCCC12NC(=O)N(CC(=O)Nc1sccc1C(N)=O)C2=O (configuration not stated) | inactive: -0.356% |  |
| CC(=O)Nc1cccc(C(=O)/C=C/c2ccc(/C=C/C(=O)c3cccc(NC(C)=O)c3)cc2)c1 | inconclusive: 17.7% |  |
| Cc1ccc(NC(=O)CC2SC(=O)NC2=O)cc1 (configuration not stated) | inactive: 0.328% |  |
| CCc1nc(SCC(=O)Nc2ccc(N(C)C)cc2)c2ccccc2n1 | inactive: -23.1% |  |
| CCNc1ccc(C(=O)NN=C2CCCC2)cc1[N+](=O)[O-] |  | inconclusive: 3.98 µM [falling, full curve] |
| CSCCC(NC(=O)c1ccco1)C(=O)NCC(C)(C)N1CCOCC1 (configuration not stated) | inactive: 7.68% |  |
| COc1ccccc1/C=C/C(=O)OCC(=O)NC1CC1 |  | inconclusive: 20.6 µM [falling, partial curve, poor fit] |
| CCc1ccc(CN2C(=O)c3ccccc3C2C(=O)NCCc2ccc(OC)c(OC)c2)cc1 (configuration not stated) | inconclusive: 3.34% |  |
| CCc1cc(C(=O)N2CCCC(Nc3ccc(F)c(F)c3)C2)n(C)n1 (configuration not stated) | inconclusive: -0.206% |  |

Ordered by length of the SMILES (descending): part of the list above

| SMILES | activity change, negative = inhibition | Potency |
| --- | --- | --- |
| C/C(=N\NC(=O)c1ccn(C)n1)c1cccc(NC(=O)c2ccncc2)c1 |  | inconclusive: 29.1 µM [falling, single point] |
| Cc1ccc(Nc2c(-c3ccc(N4CCOCC4)cc3)nc3ncccn23)cc1 | inconclusive: 3.77% |  |
| CC1CCCCC12NC(=O)N(CC(=O)Nc1sccc1C(N)=O)C2=O (configuration not stated) | inactive: -0.356% |  |
| COc1cn(-c2ccccc2)nc1C(=O)Nc1ccc(C)cc1 | inactive: -14.7% |  |
